Patent publication US8372951B2, “Cell penetrating peptides for intracellular delivery” (National Tsing Hua University, priority 2010, dated 2013)

Tested on: zebrafish larva
Assay: In vivo delivery in zebrafish larva, fluorescence microscopy

Substance: FITC-ECP(32-41): fluorochrome-tagged peptide, FITC-labeled ECP(32-41) (SEQ ID NO: 1) (NYRWRCKNQN; N-terminal FITC label; ECP(32-41))
- fluorescent signal in larva after microinjection (72 hpf larva, 5 μM injected into circulation, 2 days after injection): clearly detected
- fluorescent signal inside larva after soaking (7 day larva soaked in water with 1 μM for 1 day, then fresh water for two days): Evident fluorescent signal inside the larva
